The results in this text go back to the supplement of paper PMC10849652.

Sequences of proteins named here, by UniProt entry; tags and fusion partners are left off. A change or cut given only in a name is not applied to a line headed by its entry.
UniProt Q86X27: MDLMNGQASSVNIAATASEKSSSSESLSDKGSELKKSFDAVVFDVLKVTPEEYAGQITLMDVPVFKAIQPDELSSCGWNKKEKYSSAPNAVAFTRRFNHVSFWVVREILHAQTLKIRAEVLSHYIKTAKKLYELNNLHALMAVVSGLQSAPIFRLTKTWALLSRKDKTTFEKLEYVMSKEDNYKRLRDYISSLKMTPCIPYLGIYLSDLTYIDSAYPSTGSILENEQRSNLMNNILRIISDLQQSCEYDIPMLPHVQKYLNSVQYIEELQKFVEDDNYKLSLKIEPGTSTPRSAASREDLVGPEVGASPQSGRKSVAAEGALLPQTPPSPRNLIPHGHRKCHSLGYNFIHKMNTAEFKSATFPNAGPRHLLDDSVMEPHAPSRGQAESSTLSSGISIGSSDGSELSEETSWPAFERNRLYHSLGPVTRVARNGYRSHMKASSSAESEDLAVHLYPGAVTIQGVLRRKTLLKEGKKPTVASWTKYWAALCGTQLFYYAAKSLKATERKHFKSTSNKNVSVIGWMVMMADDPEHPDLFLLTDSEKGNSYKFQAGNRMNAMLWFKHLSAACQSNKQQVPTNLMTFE
UniProt Q8N0V3: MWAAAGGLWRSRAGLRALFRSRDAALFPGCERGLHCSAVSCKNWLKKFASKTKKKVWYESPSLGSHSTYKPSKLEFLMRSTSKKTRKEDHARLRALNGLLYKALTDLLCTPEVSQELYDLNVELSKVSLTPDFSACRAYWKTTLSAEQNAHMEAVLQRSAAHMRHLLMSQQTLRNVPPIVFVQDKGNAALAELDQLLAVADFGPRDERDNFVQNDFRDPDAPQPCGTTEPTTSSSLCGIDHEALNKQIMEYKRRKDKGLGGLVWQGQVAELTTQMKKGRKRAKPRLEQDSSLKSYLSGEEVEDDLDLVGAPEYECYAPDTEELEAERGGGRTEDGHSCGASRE
UniProt O75884: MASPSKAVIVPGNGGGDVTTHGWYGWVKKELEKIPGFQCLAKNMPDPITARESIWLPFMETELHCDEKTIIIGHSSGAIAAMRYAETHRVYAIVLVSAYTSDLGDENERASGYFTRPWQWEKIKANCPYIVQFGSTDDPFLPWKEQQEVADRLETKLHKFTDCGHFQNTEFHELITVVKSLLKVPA
UniProt Q9P0K7: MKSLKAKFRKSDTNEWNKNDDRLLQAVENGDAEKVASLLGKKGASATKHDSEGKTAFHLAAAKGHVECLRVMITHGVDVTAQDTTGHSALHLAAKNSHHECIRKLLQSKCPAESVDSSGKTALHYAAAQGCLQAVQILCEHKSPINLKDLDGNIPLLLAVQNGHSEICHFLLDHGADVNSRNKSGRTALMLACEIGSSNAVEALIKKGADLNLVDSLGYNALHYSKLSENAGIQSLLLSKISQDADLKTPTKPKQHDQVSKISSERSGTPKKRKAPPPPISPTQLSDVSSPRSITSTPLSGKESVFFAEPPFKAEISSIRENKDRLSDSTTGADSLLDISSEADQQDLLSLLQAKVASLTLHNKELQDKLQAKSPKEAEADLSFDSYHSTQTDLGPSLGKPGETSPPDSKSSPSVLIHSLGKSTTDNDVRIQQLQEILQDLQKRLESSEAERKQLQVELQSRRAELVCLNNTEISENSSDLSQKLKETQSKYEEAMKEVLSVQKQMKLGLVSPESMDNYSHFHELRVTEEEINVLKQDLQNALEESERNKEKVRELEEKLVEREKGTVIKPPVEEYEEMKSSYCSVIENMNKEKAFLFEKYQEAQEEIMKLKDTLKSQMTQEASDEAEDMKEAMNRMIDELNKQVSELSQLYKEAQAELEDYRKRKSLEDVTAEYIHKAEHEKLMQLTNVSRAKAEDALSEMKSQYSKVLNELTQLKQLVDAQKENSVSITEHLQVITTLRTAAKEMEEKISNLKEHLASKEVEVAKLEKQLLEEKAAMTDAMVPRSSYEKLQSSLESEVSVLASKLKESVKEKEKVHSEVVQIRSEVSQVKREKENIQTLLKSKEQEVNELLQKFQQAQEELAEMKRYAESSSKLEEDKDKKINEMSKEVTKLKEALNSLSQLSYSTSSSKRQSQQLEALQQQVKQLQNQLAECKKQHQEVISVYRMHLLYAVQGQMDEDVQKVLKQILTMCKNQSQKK
UniProt Q7Z5J4: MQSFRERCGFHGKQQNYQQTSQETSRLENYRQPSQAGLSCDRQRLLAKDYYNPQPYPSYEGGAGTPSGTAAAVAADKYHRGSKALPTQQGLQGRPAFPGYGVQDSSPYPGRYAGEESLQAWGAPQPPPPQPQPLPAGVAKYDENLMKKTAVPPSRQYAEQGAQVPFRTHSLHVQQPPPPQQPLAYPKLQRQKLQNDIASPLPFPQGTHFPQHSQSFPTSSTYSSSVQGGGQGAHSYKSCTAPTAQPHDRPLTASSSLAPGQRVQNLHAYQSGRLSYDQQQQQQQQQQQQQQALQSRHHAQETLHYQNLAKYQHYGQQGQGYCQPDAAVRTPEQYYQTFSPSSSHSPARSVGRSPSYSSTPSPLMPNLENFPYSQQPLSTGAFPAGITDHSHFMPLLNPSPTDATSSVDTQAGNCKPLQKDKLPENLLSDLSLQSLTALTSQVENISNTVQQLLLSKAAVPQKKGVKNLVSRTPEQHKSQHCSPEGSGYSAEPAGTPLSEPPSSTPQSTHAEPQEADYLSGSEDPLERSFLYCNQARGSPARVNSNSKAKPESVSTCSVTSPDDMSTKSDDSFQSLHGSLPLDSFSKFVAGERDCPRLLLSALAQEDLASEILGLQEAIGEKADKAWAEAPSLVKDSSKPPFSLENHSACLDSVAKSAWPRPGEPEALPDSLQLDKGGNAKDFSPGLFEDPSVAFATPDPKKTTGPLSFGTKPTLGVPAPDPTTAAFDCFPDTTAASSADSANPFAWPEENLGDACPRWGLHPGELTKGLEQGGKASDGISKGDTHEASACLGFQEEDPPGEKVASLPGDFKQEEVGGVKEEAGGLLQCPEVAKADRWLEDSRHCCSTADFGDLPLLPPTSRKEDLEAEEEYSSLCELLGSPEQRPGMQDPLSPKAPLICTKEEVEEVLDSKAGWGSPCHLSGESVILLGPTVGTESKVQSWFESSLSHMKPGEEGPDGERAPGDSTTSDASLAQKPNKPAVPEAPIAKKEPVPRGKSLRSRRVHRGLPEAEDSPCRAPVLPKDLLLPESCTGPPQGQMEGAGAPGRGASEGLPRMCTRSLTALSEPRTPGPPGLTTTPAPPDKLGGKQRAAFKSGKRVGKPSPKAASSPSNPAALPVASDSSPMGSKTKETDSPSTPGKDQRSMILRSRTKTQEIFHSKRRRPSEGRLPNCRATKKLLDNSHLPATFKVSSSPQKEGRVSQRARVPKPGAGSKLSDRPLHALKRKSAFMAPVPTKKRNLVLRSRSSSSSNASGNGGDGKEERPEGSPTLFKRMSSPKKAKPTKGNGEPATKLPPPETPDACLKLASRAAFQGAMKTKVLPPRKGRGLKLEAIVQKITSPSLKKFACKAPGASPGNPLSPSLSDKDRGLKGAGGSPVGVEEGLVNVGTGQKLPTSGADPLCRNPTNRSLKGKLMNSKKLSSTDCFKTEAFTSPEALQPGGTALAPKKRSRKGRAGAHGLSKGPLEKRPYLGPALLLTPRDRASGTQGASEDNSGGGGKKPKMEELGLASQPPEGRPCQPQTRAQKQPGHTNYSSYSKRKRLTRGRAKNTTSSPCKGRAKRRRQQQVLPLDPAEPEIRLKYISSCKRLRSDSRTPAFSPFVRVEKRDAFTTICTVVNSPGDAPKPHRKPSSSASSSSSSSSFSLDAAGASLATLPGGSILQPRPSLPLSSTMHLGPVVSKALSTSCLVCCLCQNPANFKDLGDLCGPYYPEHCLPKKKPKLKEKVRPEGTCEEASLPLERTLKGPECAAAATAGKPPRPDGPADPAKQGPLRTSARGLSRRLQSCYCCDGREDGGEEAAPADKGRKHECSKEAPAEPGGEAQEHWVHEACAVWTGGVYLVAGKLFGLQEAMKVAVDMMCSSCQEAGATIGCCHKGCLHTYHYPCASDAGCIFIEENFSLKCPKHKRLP
UniProt Q9NS23: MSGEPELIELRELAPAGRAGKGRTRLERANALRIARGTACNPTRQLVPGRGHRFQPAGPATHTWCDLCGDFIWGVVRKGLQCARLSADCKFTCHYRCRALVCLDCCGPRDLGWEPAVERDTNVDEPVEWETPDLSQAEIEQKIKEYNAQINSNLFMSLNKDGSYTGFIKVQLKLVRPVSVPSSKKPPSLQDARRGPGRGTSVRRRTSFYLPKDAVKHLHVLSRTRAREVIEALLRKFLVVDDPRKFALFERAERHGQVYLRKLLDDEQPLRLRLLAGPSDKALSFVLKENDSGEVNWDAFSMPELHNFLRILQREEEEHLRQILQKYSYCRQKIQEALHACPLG
UniProt Q13905: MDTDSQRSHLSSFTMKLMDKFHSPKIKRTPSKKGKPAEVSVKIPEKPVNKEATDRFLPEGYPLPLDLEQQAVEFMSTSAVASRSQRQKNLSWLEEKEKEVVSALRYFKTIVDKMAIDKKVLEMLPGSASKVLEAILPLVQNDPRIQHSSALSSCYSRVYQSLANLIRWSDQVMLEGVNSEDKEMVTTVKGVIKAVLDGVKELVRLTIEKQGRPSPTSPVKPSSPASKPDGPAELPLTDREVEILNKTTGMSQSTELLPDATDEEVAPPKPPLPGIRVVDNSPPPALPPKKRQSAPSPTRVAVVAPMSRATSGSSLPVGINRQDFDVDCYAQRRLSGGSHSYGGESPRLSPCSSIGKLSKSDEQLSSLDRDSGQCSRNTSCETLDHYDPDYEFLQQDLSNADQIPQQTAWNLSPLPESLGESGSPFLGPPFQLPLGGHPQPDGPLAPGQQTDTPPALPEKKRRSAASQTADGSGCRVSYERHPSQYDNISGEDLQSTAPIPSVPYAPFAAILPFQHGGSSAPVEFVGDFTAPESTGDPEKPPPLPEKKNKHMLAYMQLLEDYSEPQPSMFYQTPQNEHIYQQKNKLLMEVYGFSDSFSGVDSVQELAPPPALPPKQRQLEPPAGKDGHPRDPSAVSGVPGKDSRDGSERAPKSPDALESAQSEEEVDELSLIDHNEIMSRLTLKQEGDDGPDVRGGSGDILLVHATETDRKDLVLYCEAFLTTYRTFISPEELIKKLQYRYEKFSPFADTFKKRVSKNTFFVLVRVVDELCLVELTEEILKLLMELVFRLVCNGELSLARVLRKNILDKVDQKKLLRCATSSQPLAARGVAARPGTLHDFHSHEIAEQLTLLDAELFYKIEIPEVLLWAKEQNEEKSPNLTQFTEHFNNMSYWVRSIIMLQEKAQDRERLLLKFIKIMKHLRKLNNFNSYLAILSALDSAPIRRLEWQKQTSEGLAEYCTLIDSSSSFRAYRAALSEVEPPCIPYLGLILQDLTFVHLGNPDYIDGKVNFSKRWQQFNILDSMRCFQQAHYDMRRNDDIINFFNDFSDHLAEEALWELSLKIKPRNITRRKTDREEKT
UniProt Q96D70: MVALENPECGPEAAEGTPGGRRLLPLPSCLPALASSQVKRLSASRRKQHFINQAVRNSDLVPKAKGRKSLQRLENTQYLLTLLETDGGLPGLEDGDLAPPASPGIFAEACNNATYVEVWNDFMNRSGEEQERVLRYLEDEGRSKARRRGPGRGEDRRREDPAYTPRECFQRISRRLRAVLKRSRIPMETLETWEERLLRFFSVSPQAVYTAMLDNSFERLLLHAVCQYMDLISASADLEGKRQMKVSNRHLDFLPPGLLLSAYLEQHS
UniProt Q15291, whole entry, looked up: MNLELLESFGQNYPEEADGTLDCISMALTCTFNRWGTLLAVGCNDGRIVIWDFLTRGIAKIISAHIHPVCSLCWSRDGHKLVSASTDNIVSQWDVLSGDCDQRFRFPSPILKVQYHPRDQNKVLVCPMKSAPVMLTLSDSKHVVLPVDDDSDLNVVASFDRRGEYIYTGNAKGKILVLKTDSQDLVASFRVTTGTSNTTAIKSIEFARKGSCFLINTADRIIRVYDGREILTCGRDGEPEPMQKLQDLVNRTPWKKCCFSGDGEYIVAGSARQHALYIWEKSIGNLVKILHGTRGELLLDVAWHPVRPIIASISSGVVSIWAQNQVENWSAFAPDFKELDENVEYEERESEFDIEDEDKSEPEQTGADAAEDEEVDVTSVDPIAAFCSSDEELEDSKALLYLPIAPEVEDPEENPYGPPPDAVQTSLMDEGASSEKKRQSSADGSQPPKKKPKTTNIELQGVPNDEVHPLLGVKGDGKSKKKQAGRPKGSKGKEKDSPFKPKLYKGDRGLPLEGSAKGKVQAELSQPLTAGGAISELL
UniProt P54725: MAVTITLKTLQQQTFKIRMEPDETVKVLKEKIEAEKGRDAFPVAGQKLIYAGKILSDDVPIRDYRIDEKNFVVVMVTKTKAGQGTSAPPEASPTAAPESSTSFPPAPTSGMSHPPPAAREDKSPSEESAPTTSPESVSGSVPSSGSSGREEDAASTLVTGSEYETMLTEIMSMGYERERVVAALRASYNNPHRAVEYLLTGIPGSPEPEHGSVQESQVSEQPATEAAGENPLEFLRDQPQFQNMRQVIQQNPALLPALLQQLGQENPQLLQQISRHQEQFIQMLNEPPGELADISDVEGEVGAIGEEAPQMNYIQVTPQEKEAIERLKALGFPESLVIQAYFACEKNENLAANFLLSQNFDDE

This is one part of the list.

Holding throughout (assay): log2 fold change, soluble protein after heating vs DMSO (PISA); higher = thermal stabilisation; K562 cells, 10 uM, 30 min; active = over 0.2 and 3.5 SD of the protein, either way, in both replicates (recomputed)
Compound in one experiment: CO[C@H]1C[C@@H]2CC[C@@H](C)[C@@](O)(O2)C(=O)C(=O)N2CCCC[C@H]2C(=O)O[C@H]([C@H](C)C[C@@H]2CC[C@H](n3cnnn3)[C@H](OC)C2)CC(=O)[C@H](C)/C=C(\C)[C@@H](O)[C@@H](OC)C(=O)[C@H](C)C[C@H](C)/C=C/C=C/C=C/1C [zotarolimus]
The gist of the method:
(§1)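 Thermal stability values are relative to control samples and come from duplicates. They are expressed as log2 fold changes. For measurement, K562 cells (2×10^6 cells/mL) received 10 μM compound for 30 min, and aliquots were heated for 3 min over 48°C-58°C, pooled, and extracted at 4°C in PBS with 0.5% NP-40. Soluble protein, the supernatant after 21,000xg for 90 min, was quantified by TMTpro 16plex LC-MS/MS with equalised channel sums.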

Compound in the next experiment: COc1cc(C(=O)O)ccc1NC(=O)[C@@H]1N[C@@H](CC(C)(C)C)[C@](C#N)(c2ccc(Cl)cc2F)[C@H]1c1cccc(Cl)c1F [idasanutlin]
In short, it runs like this: as §1

Compound in another experiment: COc1cc(Nc2ncc3c(n2)-c2ccc(Cl)cc2C(c2c(F)cccc2OC)=NC3)ccc1C(=O)O [alisertib]
In short, it runs like this:
as §1

Compound in experiment [1]: COc1cc2nc(-c3cc(F)ccc3O)nc(N[C@@H]3CNC[C@H]3C(C)(C)O)c2cc1OC
The gist of the method:
as §1

Compound in another experiment: COc1cc2ncnc(Nc3ccc(F)c(Cl)c3)c2cc1OCCCN1CCOCC1 [gefitinib]
The gist of the method: as §1

Compound in experiment [2]: COc1cccc2cc(-c3nc([C@H]4CC[C@H](C(=O)O)CC4)n4ncnc(N)c34)[nH]c12
In short, it runs like this: as §1

Compound in the next experiment: CS(=O)(=O)CCNCc1ccc(-c2ccc3ncnc(Nc4ccc(OCc5cccc(F)c5)c(Cl)c4)c3c2)o1 [lapatinib]
In short, it runs like this: as §1

Compound in a further experiment: CS(=O)(=O)N1CCN(Cc2cc3nc(-c4cccc5[nH]ncc45)nc(N4CCOCC4)c3s2)CC1 [pictilisib]
In short, it runs like this:
as §1

Compound in the next experiment: CON(C)C(=O)N1N=C(c2cc(F)ccc2F)S[C@@]1(CCCN)c1ccccc1 [filanesib]
The gist of the method:
as §1

Compound in experiment [3]: COC1=CC=C(C=C1)CN2C=CC3=C2C=C(C=C3)C(=O)NO
The gist of the method: as §1

As for RAB3D (UniProt O95716), the log2 fold change with zotarolimus is inactive: -0.08; in the experiment with idasanutlin it was inactive: 0.026; with alisertib it was inactive: 0.007; in experiment [1], inactive: 0.002; in the experiment with gefitinib, inactive: 0.243; in experiment [2], inactive: -0.07. Also, the figures for the log2 fold change with lapatinib and with pictilisib were inactive: 0.002 and inactive: -0.153, respectively.

Take RASSF3 (UniProt Q86WH2): the log2 fold change with zotarolimus was inactive: 0.145; with idasanutlin, inactive: 0.032; with alisertib it was inactive: -0.172; in [1], inactive: 0.12; in the experiment with gefitinib it was inactive: 0.035; in experiment [2], inactive: -0.003. Further, the log2 fold change with lapatinib was inactive: -0.028; with pictilisib, inactive: 0.

RBL1 (UniProt P28749): the log2 fold change in the experiment with gefitinib was inactive: -0.11; with pictilisib, inactive: 0.554.

Turning to RAD51B (UniProt O15315), the log2 fold change was inactive: -0.028 in the experiment with filanesib; inactive: -0.028 in the experiment with zotarolimus; inactive: -0.001 with idasanutlin; inactive: 0.101 with alisertib; inactive: 0.072 in experiment [1]; inactive: -0.02 with gefitinib. Moreover, the results for the log2 fold change (in experiment [2]; with lapatinib; with pictilisib) were inactive: 0.093, inactive: 0.004 and inactive: -0.044, respectively.

As to RAB3B (UniProt P20337), the log2 fold change with filanesib is inactive: -0.082; in experiment [1], inactive: -0.08; with lapatinib it was inactive: -0.415; with pictilisib it was inactive: 0.303.

With RALGPS2 (UniProt Q86X27), the log2 fold change in experiment [3] was inactive: 0.246; in the experiment with zotarolimus, inactive: 0.038; with idasanutlin, inactive: -0.062; with alisertib, inactive: 0.109; in experiment [2], inactive: 0.132; with pictilisib, inactive: 0.165.

Consider RBFA (UniProt Q8N0V3), for which the log2 fold change was inactive: -0.129 in [1] and inactive: 0.093 in the experiment with lapatinib.

For the target RBM14 (UniProt Q96PK6), the log2 fold change in [3] was inactive: 0.154; in the experiment with zotarolimus, inactive: -0.057; in the experiment with idasanutlin it was inactive: -0.02; with alisertib it was inactive: -0.002; in experiment [1], inactive: -0.047; in experiment [2] it was inactive: -0.101. The log2 fold change is inactive: -0.052 with lapatinib and inactive: 0.004 with pictilisib.

In the case of RBBP4 isoform 2 (UniProt Q09028), the log2 fold change with zotarolimus is inactive: -0.057; with idasanutlin it was inactive: -0.019; with alisertib, inactive: 0.044; in experiment [2] it was inactive: 0.031; with pictilisib, inactive: 0.078.

Regarding RAP1B (UniProt F5GWU8), the log2 fold change in [3] is inactive: -0.086; with zotarolimus, inactive: 0.114; with idasanutlin, inactive: 0.058; in [1] it was inactive: 0.207; with lapatinib, inactive: -0.043.

Consider RASA3 (UniProt Q14644), for which the values for the log2 fold change with zotarolimus and in the experiment with pictilisib were inactive: 0.196 and inactive: 0.558, respectively.

On to RAB18 (UniProt H0Y6T8), for which the log2 fold change in experiment [3] is inactive: -0.156; with zotarolimus, inactive: -0.054; with alisertib, inactive: 0.053; with gefitinib, inactive: 0.038; in [2] it was inactive: 0.141.

Turning to RBBP9 (UniProt O75884), the figures for the log2 fold change (in the experiment with filanesib; in the experiment with alisertib; in experiment [2]) were inactive: -0.189, inactive: 0.343 and inactive: 0.089, respectively.

On to RBM26 isoform 3 (UniProt Q5T8P6), for which the log2 fold change with filanesib is inactive: 0.004; with idasanutlin it was inactive: 0.167.

As for RAB11FIP5 (UniProt Q9BXF6), the results for the log2 fold change (in experiment [1]; with lapatinib) were inactive: -0.03 and inactive: 0.184, respectively.

With RAI14 isoform 2 (UniProt Q9P0K7), the log2 fold change was inactive: 0.063 in the experiment with filanesib; inactive: 0.244 in the experiment with zotarolimus; inactive: 0.083 in the experiment with idasanutlin; inactive: 0.023 with alisertib; inactive: 0.056 in [1]; inactive: -0.1 in the experiment with gefitinib. The log2 fold change in experiment [2] was inactive: 0.377; with lapatinib it was inactive: -0.001; with pictilisib, inactive: -0.033.

With RAI1 (UniProt Q7Z5J4), the log2 fold change is inactive: 0.396 with filanesib, inactive: 0.061 with alisertib, inactive: 0.334 with gefitinib and inactive: -0.097 in [2].

As for RBBP8 isoform 2 (UniProt Q99708), the log2 fold change in [3] was inactive: -0.049; with idasanutlin, inactive: 0.137; in experiment [1], inactive: 0.178; in the experiment with lapatinib, inactive: -0.012.

Consider RABEP2 (UniProt Q9H5N1), for which, in the experiment with zotarolimus, the log2 fold change is inactive: -0.243.

Consider RASSF1 (UniProt Q9NS23), for which the log2 fold change in the experiment with filanesib was inactive: 0.217.

Regarding RAPGEF1 isoform 3 (UniProt Q13905), the results for the log2 fold change (with filanesib; with alisertib; in [2]) were inactive: -0.239, inactive: 0.056 and inactive: 0.151, respectively.

In the case of RACK1 (UniProt D6RHH4), the log2 fold change with filanesib is inactive: -0.036; in the experiment with zotarolimus, inactive: -0.165; with idasanutlin, inactive: 0.097; with alisertib it was inactive: 1.47; in experiment [1], inactive: 0.382; with gefitinib, inactive: 0.035. Further, the log2 fold change in [2] was inactive: 0.04; in the experiment with lapatinib it was inactive: -0.198; with pictilisib, inactive: 0.394.

On to RAP2C (UniProt Q9Y3L5), for which the log2 fold change is inactive: -0.011 with filanesib; inactive: -0.031 with zotarolimus; inactive: 0.008 with idasanutlin; inactive: -0.073 in the experiment with alisertib; inactive: 0.016 in experiment [1]; inactive: -0.01 with gefitinib. In addition, the log2 fold change is inactive: 0.031 in experiment [2], inactive: 0.1 in the experiment with lapatinib and active: -0.799 in the experiment with pictilisib.

In the case of R3HDM4 (UniProt Q96D70), the log2 fold change was inactive: -0.048 with filanesib; inactive: -0.029 in the experiment with idasanutlin; inactive: -0.328 with alisertib; inactive: 0.101 in [1]; inactive: -0.275 in the experiment with gefitinib; inactive: 0.065 in experiment [2]. Further, the log2 fold change with lapatinib is inactive: -0.072.

As to RBBP5 isoform 2 (UniProt Q15291), the log2 fold change in the experiment with filanesib was inactive: 0.038; with idasanutlin, inactive: 0.038; with alisertib, inactive: -0.144; in experiment [1], inactive: -0.068; with gefitinib it was inactive: -0.215; in [2] it was inactive: 0.055. The log2 fold change is inactive: 0.09 with lapatinib and inactive: 0.118 in the experiment with pictilisib.

As for RAD23A isoform 3 (UniProt P54725), the log2 fold change is inactive: -0.073 with gefitinib and inactive: 0.364 in the experiment with pictilisib.

For RBM23 (UniProt Q86U06), the log2 fold change is inactive: 0.171 in the experiment with filanesib, inactive: 0.104 with zotarolimus, inactive: -0.179 in [1] and inactive: 0.215 in the experiment with lapatinib.

In the case of RAB11FIP4 (UniProt Q86YS3), in the experiment with filanesib, the log2 fold change was inactive: 0.007.

For the target RBM28 (UniProt Q9NW13), the log2 fold change was inactive: 0.375 with filanesib; inactive: -0.086 in the experiment with zotarolimus; inactive: 0.229 in the experiment with idasanutlin; inactive: 0.101 in the experiment with alisertib; inactive: 0.045 in experiment [1]; inactive: -0.01 in experiment [2]. Further, in the experiment with lapatinib, the log2 fold change was inactive: -0.116.
